Like-named read-outs stand apart in the source and are kept apart here. No constants are given. Whether binding was seen depends on the method and setting. In cells and extracts the contact can be indirect. Here binding means that the protein was enriched with, or labelled near, the bait; the list need not be complete. For some assays here: No binding means not detected with the bait.
How the values were obtained:
Assay in all cases: affinity purification with mass spectrometry; CK1δ-VM or CK1ε-VM purified in duplicate from lysates of asynchronous or mitotic HEK293 cells on anti-Flag magnetic beads, then streptavidin beads (0.5% Triton X-100 lysis buffer, washes with 250 mM NaCl); LC-MS/MS; VM alone as control
[1] = molecular target: CK1ε-VM (casein kinase 1 epsilon, tagged at its endogenous locus with Venus-MAP) (human) (UniProt P49674)
[2] = molecular target: CK1δ-VM (casein kinase 1 delta, tagged at its endogenous locus with Venus-MAP) (human) (UniProt P48730)
[3] = molecular target: CK1ε-VM (casein kinase 1 epsilon, tagged at its endogenous locus with Venus-MAP) (human) (UniProt P49674); remark: listed apart in the source

By UniProt entry, the sequences of proteins in these tests, tags left out. Where a name states a change or a piece, a line headed by the entry shows the natural chain unless it says otherwise.
UniProt P49674: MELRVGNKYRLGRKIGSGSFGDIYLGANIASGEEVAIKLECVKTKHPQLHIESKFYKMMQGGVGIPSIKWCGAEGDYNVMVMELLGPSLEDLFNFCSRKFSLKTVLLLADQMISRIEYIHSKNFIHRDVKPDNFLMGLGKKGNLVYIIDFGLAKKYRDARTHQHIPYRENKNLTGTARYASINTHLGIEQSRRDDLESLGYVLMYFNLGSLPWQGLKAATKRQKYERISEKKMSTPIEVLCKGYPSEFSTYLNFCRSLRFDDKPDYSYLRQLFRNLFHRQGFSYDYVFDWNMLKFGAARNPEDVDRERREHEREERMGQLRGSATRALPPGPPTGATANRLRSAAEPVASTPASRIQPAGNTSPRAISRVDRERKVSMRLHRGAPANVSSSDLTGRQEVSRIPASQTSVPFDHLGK
UniProt P48730: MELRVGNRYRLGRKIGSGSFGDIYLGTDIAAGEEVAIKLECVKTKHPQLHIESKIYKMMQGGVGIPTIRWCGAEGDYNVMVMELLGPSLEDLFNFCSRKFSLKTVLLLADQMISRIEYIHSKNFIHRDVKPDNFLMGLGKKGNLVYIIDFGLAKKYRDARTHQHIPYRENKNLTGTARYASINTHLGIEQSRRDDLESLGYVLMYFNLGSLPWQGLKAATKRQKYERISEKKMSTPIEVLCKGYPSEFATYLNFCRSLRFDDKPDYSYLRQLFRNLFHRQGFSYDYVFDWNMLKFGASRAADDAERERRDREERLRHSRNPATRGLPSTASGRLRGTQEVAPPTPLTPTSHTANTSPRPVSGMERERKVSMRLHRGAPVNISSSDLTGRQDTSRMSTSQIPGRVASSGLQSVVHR
UniProt O15534: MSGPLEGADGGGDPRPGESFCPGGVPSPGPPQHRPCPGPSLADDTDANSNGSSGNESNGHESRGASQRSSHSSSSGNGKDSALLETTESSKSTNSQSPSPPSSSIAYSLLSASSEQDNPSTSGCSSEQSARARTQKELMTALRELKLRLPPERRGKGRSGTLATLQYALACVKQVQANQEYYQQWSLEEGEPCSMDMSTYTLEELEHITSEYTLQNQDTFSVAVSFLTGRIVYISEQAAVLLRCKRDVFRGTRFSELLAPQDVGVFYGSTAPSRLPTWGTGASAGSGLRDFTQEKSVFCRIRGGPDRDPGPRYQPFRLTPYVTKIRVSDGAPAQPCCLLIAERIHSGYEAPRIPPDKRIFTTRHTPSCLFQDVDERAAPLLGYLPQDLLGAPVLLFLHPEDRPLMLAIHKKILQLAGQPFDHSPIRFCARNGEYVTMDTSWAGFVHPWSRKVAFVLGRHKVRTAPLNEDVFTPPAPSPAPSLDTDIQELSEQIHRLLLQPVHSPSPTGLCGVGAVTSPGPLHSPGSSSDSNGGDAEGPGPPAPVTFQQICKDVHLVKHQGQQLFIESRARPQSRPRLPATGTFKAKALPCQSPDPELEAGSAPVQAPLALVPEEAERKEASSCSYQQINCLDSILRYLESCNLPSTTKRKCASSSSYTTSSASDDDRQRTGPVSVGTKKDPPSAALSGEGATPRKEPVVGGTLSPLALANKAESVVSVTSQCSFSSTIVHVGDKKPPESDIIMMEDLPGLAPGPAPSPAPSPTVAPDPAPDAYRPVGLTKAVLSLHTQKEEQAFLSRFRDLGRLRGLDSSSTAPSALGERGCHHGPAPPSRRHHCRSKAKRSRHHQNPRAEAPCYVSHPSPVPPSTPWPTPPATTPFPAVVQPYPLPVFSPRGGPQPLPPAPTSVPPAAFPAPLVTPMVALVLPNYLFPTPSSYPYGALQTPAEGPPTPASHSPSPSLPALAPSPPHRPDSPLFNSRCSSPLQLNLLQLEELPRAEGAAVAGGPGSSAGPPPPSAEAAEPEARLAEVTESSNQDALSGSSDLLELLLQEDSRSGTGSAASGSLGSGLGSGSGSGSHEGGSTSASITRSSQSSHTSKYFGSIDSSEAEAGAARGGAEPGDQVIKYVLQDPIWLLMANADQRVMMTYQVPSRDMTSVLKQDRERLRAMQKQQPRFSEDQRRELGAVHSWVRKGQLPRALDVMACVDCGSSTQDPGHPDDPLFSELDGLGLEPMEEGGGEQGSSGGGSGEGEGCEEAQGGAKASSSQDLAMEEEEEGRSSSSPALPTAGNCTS
UniProt Q99996: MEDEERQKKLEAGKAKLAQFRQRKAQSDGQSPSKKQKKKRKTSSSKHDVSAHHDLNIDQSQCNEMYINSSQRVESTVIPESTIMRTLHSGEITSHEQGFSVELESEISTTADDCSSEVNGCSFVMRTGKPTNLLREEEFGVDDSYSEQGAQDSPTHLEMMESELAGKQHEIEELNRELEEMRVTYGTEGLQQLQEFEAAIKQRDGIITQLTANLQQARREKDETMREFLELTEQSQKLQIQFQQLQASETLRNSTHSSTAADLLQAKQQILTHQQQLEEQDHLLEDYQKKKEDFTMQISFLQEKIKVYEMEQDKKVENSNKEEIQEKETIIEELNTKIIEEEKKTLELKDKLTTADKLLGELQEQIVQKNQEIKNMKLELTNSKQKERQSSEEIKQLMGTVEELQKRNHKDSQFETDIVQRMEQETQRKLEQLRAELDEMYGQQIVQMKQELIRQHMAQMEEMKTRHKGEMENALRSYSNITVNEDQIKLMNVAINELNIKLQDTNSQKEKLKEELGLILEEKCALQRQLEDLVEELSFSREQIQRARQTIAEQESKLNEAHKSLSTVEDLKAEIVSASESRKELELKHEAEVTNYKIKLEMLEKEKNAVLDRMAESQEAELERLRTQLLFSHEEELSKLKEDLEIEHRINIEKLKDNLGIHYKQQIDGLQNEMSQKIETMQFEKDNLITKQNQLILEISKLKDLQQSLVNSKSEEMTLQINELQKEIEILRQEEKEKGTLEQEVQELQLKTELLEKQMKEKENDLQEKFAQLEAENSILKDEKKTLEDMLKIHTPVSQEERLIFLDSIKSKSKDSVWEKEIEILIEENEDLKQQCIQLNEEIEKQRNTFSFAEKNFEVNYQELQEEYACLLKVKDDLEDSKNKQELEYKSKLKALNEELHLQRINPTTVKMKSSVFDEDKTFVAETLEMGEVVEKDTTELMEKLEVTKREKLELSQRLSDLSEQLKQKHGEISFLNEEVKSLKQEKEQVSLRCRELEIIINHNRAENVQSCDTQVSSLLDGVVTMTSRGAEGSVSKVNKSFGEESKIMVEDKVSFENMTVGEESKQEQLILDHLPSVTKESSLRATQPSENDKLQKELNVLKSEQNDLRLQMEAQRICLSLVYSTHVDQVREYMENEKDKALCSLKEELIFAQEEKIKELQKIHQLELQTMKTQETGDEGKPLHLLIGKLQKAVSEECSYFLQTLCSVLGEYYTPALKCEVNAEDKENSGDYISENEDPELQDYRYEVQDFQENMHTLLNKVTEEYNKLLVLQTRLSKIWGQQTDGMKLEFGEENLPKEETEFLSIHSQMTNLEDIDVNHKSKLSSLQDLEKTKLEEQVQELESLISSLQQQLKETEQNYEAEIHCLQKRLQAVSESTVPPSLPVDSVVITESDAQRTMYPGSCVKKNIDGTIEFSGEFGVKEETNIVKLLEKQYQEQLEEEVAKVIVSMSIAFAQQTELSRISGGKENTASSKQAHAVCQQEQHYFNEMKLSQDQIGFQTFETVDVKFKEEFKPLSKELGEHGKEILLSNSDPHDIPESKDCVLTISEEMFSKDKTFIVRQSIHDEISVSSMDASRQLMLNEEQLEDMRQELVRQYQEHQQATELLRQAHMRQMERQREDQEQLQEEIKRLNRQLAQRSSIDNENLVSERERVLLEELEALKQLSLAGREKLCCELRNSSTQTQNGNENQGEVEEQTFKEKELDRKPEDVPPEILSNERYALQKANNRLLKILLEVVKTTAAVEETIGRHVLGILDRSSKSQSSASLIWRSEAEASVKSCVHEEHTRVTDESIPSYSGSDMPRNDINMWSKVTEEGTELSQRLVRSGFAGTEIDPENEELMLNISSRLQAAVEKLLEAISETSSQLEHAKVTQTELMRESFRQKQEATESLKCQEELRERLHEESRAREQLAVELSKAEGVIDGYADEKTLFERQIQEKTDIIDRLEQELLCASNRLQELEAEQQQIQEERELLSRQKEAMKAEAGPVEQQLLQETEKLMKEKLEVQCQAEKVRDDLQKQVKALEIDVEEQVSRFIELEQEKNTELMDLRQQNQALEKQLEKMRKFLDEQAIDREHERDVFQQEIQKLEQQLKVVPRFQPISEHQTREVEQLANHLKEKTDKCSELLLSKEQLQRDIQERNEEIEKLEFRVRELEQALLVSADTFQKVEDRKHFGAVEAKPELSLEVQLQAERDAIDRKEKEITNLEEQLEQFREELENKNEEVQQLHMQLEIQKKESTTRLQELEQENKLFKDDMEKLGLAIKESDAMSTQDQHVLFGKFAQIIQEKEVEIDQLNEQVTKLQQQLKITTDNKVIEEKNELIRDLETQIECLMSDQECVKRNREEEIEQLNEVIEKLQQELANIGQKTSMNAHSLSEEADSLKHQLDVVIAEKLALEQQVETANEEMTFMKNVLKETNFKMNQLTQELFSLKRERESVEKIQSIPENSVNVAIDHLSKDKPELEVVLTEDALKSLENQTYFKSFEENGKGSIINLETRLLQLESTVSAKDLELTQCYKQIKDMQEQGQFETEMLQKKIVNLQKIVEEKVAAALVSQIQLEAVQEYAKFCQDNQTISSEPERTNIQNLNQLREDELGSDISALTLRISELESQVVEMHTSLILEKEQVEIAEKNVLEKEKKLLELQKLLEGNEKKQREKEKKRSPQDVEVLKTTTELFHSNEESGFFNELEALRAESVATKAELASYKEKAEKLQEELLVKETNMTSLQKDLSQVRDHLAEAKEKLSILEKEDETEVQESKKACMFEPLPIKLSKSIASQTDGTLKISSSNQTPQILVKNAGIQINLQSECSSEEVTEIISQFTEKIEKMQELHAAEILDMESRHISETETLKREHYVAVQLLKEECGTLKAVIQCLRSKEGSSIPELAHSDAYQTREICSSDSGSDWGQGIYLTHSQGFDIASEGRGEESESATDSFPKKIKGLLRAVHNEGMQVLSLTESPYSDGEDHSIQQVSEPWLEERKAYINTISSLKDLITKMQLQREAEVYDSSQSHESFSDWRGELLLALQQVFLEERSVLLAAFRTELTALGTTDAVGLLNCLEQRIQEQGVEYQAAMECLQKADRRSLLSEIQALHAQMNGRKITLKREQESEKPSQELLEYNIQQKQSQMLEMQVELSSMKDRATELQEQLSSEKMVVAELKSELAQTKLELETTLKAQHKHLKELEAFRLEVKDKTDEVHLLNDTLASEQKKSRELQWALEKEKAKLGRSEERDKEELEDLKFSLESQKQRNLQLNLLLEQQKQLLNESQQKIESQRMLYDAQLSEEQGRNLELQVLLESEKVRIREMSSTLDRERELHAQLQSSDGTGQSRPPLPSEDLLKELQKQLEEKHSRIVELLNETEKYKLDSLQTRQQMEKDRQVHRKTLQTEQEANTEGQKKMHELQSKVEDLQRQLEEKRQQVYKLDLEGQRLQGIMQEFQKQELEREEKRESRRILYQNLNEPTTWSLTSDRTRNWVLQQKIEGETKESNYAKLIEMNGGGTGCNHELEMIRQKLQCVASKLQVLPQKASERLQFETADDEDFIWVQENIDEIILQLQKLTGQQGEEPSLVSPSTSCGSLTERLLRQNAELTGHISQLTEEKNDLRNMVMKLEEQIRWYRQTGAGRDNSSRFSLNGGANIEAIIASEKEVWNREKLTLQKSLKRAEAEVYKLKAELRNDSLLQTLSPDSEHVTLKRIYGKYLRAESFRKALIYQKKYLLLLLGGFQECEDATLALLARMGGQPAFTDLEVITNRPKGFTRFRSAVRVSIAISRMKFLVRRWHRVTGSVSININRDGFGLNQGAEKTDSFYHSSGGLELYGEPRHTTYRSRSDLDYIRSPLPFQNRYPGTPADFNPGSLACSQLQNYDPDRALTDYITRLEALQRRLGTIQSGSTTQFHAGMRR

| binding [1] | binding [2] | binding [3] | Molecule |
| --- | --- | --- | --- |
| binds | binds | – | Period protein 1, endogenous in HEK293 (from UniProt O15534 1-1290) |
| no binding | no binding | – | AKAP450, endogenous in HEK293 (from UniProt Q99996 1-3907) |
| – | – | binds | GTPase-activating protein and VPS9 domain-containing protein 1 (GAPVD1), endogenous in HEK293 (protein, UniProt Q14C86 1-1478) MVKLDIHTLAHHLKQERLYVNSEKQLIQRLNADVLKTAEKLYRTAWIAKQQRINLDRLIITSAEASPAECCQHAKILEDTQFVDGYKQLGFQETAYGEFLSRLRENPRLIASSLVAGEKLNQENTQSVIYTVFTSLYGNCIMQEDESYLLQVLRYLIEFELKESDNPRRLLRRGTCAFSILFKLFSEGLFSAKLFLTATLHEPIMQLLVEDEDHLETDPNKLIERFSPSQQEKLFGEKGSDRFRQKVQEMVESNEAKLVALVNKFIGYLKQNTYCFPHSLRWIVSQMYKTLSCVDRLEVGEVRAMCTDLLLACFICPAVVNPEQYGIISDAPINEVARFNLMQVGRLLQQLAMTGSEEGDPRTKSSLGKFDKSCVAAFLDVVIGGRAVETPPLSSVNLLEGLSRTVVYITYSQLITLVNFMKSVMSGDQLREDRMALDNLLANLPPAKPGKSSSLEMTPYNTPQLSPATTPANKKNRLPIATRSRSRTNMLMDLHMDHEGSSQETIQEVQPEEVLVISLGTGPQLTPGMMSENEVLNMQLSDGGQGDVPVDENKLHGKPDKTLRFSLCSDNLEGISEGPSNRSNSVSSLDLEGESVSELGAGPSGSNGVEALQLLEHEQATTQDNLDDKLRKFEIRDMMGLTDDRDISETVSETWSTDVLGSDFDPNIDEDRLQEIAGAAAENMLGSLLCLPGSGSVLLDPCTGSTISETTSEAWSVEVLPSDSEAPDLKQEERLQELESCSGLGSTSDDTDVREVSSRPSTPGLSVVSGISATSEDIPNKIEDLRSECSSDFGGKDSVTSPDMDEITHGAHQLTSPPSQSESLLAMFDPLSSHEGASAVVRPKVHYARPSHPPPDPPILEGAVGGNEARLPNFGSHVLTPAEMEAFKQRHSYPERLVRSRSSDIVSSVRRPMSDPSWNRRPGNEERELPPAAAIGATSLVAAPHSSSSSPSKDSSRGETEERKDSDDEKSDRNRPWWRKRFVSAMPKAPIPFRKKEKQEKDKDDLGPDRFSTLTDDPSPRLSAQAQVAEDILDKYRNAIKRTSPSDGAMANYESTGDNHDRDLSSKLLYHSDKEVMGDGESAHDSPRDEALQNISADDLPDSASQAAHPQDSAFSYRDAKKKLRLALCSADSVAFPVLTHSTRNGLPDHTDPEDNEIVCFLKVQIAEAINLQDKNLMAQLQETMRCVCRFDNRTCRKLLASIAEDYRKRAPYIAYLTRCRQGLQTTQAHLERLLQRVLRDKEVANRYFTTVCVRLLLESKEKKIREFIQDFQKLTAADDKTAQVEDFLQFLYGAMAQDVIWQNASEEQLQDAQLAIERSVMNRIFKLAFYPNQDGDILRDQVLHEHIQRLSKVVTANHRALQIPEVYLREAPWPSAQSEIRTISAYKTPRDKVQCILRMCSTIMNLLSLANEDSVPGADDFVPVLVFVLIKANPPCLLSTVQYISSFYASCLSGEESYWWMQFTAAVEFIKTIDDRK |

From article PMC7176688
